Measured data: PubChem BioAssay AID602196 (INSERM, 2012)

- Assay: 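Modifiers of cisplatin sensitivity in A549 cells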
- System: human A549 lung cancer cells
- Reagent: siRNA pair against human genes
- Time to read-out: 48 h transfection before cisplatin; time from cisplatin to read-out not stated
- Conditions: cisplatin at a dose killing half of control-siRNA cells; exact dose and duration not given
- Measurement: 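Cisplatin cell death as a shift from the 50% death seen with control siRNA; siRNAs toxic or growth-blocking alone scored 0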
- Direction: two-siRNA summed score (-2 to +2): higher = both siRNAs protect from cisplatin killing; -2 means both sensitise; mean protection from cisplatin (shift in death): higher = protection from cisplatin killing
- Active means: 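siRNAs harmful alone (LDH or WST-1) get 0; others get +1 for less and -1 for more cisplatin killing; genes are active when the two siRNAs give the same sign, summing to ±2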
- Calls: active = both siRNAs shift cisplatin killing the same way; inactive = no consistent shift, or siRNA harmful alone
The deposit covers about 23,000 reagents; shown is a random part of them. Over the whole deposit, 455 (2%) were called active. 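Active includes both protection and sensitisation; some change values fall well beyond the stated -50 to +50 range.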 Entries without a mark were called inactive. Further read-outs or replicates are left out here. The record does not give: the amount of reagent.

With LRRC61, what was measured?
two-siRNA summed score (-2 to +2): 0; mean protection from cisplatin (shift in death) (%): 10.3

For SELENON, what does the deposit list?
two-siRNA summed score (-2 to +2): 0; mean protection from cisplatin (shift in death) (%): 4.6

With NEXMIF, how do the results read?
two-siRNA summed score (-2 to +2): 2 (active); mean protection from cisplatin (shift in death) (%): 23.2

With USH1G, what was measured?
two-siRNA summed score (-2 to +2): 0; mean protection from cisplatin (shift in death) (%): -0.6

For C9orf85, what was measured?
two-siRNA summed score (-2 to +2): 1; mean protection from cisplatin (shift in death) (%): 9.8

With MAGEB10, how do the results read?
two-siRNA summed score (-2 to +2): 0; mean protection from cisplatin (shift in death) (%): 7.5

What did the screen give for TAGLN?
two-siRNA summed score (-2 to +2): 0; mean protection from cisplatin (shift in death) (%): -0.1

Which result is listed for SIRT6?
two-siRNA summed score (-2 to +2): 0; mean protection from cisplatin (shift in death) (%): -27.3

For ANO6, what does the deposit list?
two-siRNA summed score (-2 to +2): 0; mean protection from cisplatin (shift in death) (%): 11.6

With ABCC12, what does the deposit list?
two-siRNA summed score (-2 to +2): 0; mean protection from cisplatin (shift in death) (%): 13.6

What is on record for LOC400923?
two-siRNA summed score (-2 to +2): 0; mean protection from cisplatin (shift in death) (%): 4.1

Which result is listed for SSMEM1?
two-siRNA summed score (-2 to +2): 1; mean protection from cisplatin (shift in death) (%): 17.1

For LINC03034, how do the results read?
two-siRNA summed score (-2 to +2): 0; mean protection from cisplatin (shift in death) (%): 6.6

What is on record for KRT2?
two-siRNA summed score (-2 to +2): 0; mean protection from cisplatin (shift in death) (%): -2

As entered above.
Value of ABCC12 in “mean protection from cisplatin (shift in death) (%)”: 13.6
LOC400923, mean protection from cisplatin (shift in death) (%) = 4.1

More entries follow.
Which result is listed for AP4S1?
two-siRNA summed score (-2 to +2): 1; mean protection from cisplatin (shift in death) (%): 4

How did the screen score ADAM28?
two-siRNA summed score (-2 to +2): 0; mean protection from cisplatin (shift in death) (%): 0

How did the screen score RBL1?
two-siRNA summed score (-2 to +2): -1; mean protection from cisplatin (shift in death) (%): -16.6

What is on record for OCM2?
two-siRNA summed score (-2 to +2): 0; mean protection from cisplatin (shift in death) (%): -2.4

Which result is listed for CORT?
two-siRNA summed score (-2 to +2): 0; mean protection from cisplatin (shift in death) (%): 1.2

What did the screen give for HEXIM2?
two-siRNA summed score (-2 to +2): 0; mean protection from cisplatin (shift in death) (%): 7.8

For NUP188, what does the deposit list?
two-siRNA summed score (-2 to +2): 1; mean protection from cisplatin (shift in death) (%): 2.2

Which result is listed for PTGES?
two-siRNA summed score (-2 to +2): -2 (active); mean protection from cisplatin (shift in death) (%): -16.7

With DUSP22, what was measured?
two-siRNA summed score (-2 to +2): 0; mean protection from cisplatin (shift in death) (%): 6.8

What did the screen give for LOC402102?
two-siRNA summed score (-2 to +2): 0; mean protection from cisplatin (shift in death) (%): 3.3

What is on record for RHBDL2?
two-siRNA summed score (-2 to +2): 0; mean protection from cisplatin (shift in death) (%): -1.4

For SPG21, what does the deposit list?
two-siRNA summed score (-2 to +2): 0; mean protection from cisplatin (shift in death) (%): 3.2

What is on record for LOC441518?
two-siRNA summed score (-2 to +2): 1; mean protection from cisplatin (shift in death) (%): 14.6

What is on record for LSM11?
two-siRNA summed score (-2 to +2): 0; mean protection from cisplatin (shift in death) (%): 10.5

How did the screen score LOC442045?
two-siRNA summed score (-2 to +2): 0; mean protection from cisplatin (shift in death) (%): -5.4

With MAPK6, what does the deposit list?
two-siRNA summed score (-2 to +2): 0; mean protection from cisplatin (shift in death) (%): 3.5

For SMR3B, what was measured?
two-siRNA summed score (-2 to +2): 0; mean protection from cisplatin (shift in death) (%): 7.5
